The list does not hold the whole screen: it is rich in T/C values a quarter to a half above the control, in often repeated tests (any T/C) and in doses without a T/C. Further doses and runs are listed elsewhere. T/C: endpoint of the treated group in % of that of the vehicle group. Some entries give survivors of the animals treated and no T/C: the source holds a T/C of zero for them, seemingly a mark for toxic or unscored doses. Some survivor counts are full or nearly so, which does not show that the dose was tolerated: survival well below the control is almost never listed, so the zero probably covers shortened survival too. Counts of survivors are from the toxicity check (mostly the fifth day) where no day follows; animals may have died later. Schedules are NCI's codes, taken here to give the interval after Q, in days (D) or hours (H), and the number of doses after X. Some entries were tested several times; their values stand side by side, smallest first. Where survival is the endpoint, the PubChem record calls one and a half times the control and up active, and a quarter to a half above the control has no call in these data; cut-offs in other NCI protocols can differ.
System: P388 leukemia ip, CD2F1 mice, survival T/C
Assay: NCI In Vivo Anticancer Drug Screen. Data for tumor model P388 Leukemia (intraperitoneal) in CD2F1 (CDF1) mice
Conditions: T/C endpoint: median survival time, higher T/C = longer survival
[1] = dose: 200.0 mg/kg/injection, schedule: Q01DX009 (ip), vehicle: saline with Tween-80
[2] = dose: 100.0 mg/kg/injection, schedule: Q01DX009 (ip), vehicle: saline with Tween-80
[3] = dose: 12.5 mg/kg/injection, schedule: Q01DX009 (ip), vehicle: suspension in saline

CCO/C=N/NS(=O)(=O)c1ccc(C)cc1
T/C (dose: 25.0 mg/kg/injection, schedule: Q01DX009 (ip), vehicle: distilled water + Tween-80): 127 % of control
survivor count (dose: 25.0 mg/kg/injection, schedule: Q01DX009 (ip), vehicle: other): 6 of 6
T/C (dose: 50.0 mg/kg/injection, schedule: Q01DX009 (ip), vehicle: distilled water + Tween-80): 131 % of control
survivor count (dose: 400.0 mg/kg/injection, schedule: Q01DX009 (ip), vehicle: other): 6 of 6

CC(=O)OC1C(O)C(C)OC(OC2C(OC(=O)C3CCC4C(C3)OC3(CC(OC(=O)/C=C/c5ccccc5)C(C)CO3)C43CO3)OC(CO)C(O)C2OC(C)=O)C1O (stereo unspecified)
T/C (dose: 6.0 mg/kg/injection, schedule: Q01DX009 (ip), vehicle: saline + alcohol): 129 and 136 % of control
T/C (dose: 12.0 mg/kg/injection, schedule: Q01DX009 (ip), vehicle: saline + alcohol): 131 and 143 % of control
survivor count (dose: 24.0 mg/kg/injection, schedule: Q01DX009 (ip), vehicle: saline + alcohol): 3 of 5

Cc1cccc(/C=N\N=C\c2cccc(C)n2)n1
survivor count (dose: 400.0 mg/kg/injection, schedule: Q01DX009 (ip), vehicle: saline with Tween-80): 5 of 6

Cc1c2oc3c(C)ccc(C(=O)NC4C(=O)NC(C(C)C)C(=O)N5CCCC5C(=O)N(C)CC(=O)N(C)C(C(C)C)C(=O)OC4C)c3nc-2c(C(=O)NC2C(=O)NC(C(C)C)C(=O)N3CCCC3C(=O)N(C)CC(=O)N(C)C(C(C)C)C(=O)OC2C)c(Cl)c1=O (stereo unspecified)
T/C (dose: 0.4 mg/kg/injection, schedule: Q01DX009 (ip), vehicle: water): 125 % of control
T/C (dose: 0.8 mg/kg/injection, schedule: Q01DX009 (ip), vehicle: water): 125 % of control
T/C (dose: 1.6 mg/kg/injection, schedule: Q01DX009 (ip), vehicle: water): 136 and 144 % of control
T/C (dose: 3.13 mg/kg/injection, schedule: Q01DX009 (ip), vehicle: water): 126 % of control
T/C (dose: 3.2 mg/kg/injection, schedule: Q01DX009 (ip), vehicle: water): 147 % of control
T/C (dose: 6.25 mg/kg/injection, schedule: Q01DX009 (ip), vehicle: water): 131 % of control
survivor count (dose: 50.0 mg/kg/injection, schedule: Q01DX009 (ip), vehicle: water): 3 of 3 and 6 of 6
survivor count (dose: 100.0 mg/kg/injection, schedule: Q01DX009 (ip), vehicle: water): 0 of 3

COc1ccc(C/C(N)=N\O)cc1
survivor count (dose: 400.0 mg/kg/injection, schedule: Q01DX009 (ip), vehicle: Klucel (hydroxypropylcellulose) (HPC)): 2 of 6

[Cl][Hg][c]1ccccc1N=Nc1ccccc1I
survivor count [1]: 6 of 6

CC(=O)CCC1=C(C)C(=O)C(=O)C(C)=C1O
survivor count (dose: 240.0 mg/kg/injection, schedule: Q01DX005 (ip), vehicle: Klucel (hydroxypropylcellulose) (HPC)): 0 of 6

CCCCCCCCCCCCCCCC(=O)NC(CCCCN)C(=O)NC(CCCCN)C(=O)OCC (stereo unspecified)
survivor count (dose: 50.0 mg/kg/injection, schedule: Q01DX009 (ip), vehicle: saline with Tween-80): 2 of 6 and 3 of 6
survivor count [2]: 0 of 6
survivor count [1]: 0 of 6

O=NN(CCCl)C(=O)N[C@H]1CCCC[C@@H]1Cl
T/C (dose: 50.0 mg/kg/injection, schedule: Q04DX003 (ip), vehicle: saline with Tween-80): 131 % of control
survivor count (dose: 75.0 mg/kg/injection, schedule: Q04DX003 (ip), vehicle: saline with Tween-80): 6 of 6
survivor count [2]: 5 of 6
survivor count (dose: 200.0 mg/kg/injection, schedule: Q04DX003 (ip), vehicle: saline with Tween-80): 1 of 6

CCCCCCC(=O)OCCN1CCN(CC/C=C2\c3ccccc3Sc3ccc(C(F)(F)F)cc32)CC1
T/C [3]: 132 % of control
survivor count [3]: 5 of 6
survivor count (dose: 25.0 mg/kg/injection, schedule: Q01DX009 (ip), vehicle: saline): 6 of 6
T/C (dose: 25.0 mg/kg/injection, schedule: Q01DX009 (ip), vehicle: suspension in saline): 134 % of control

COC(=O)CCCOCCCC(=O)OC
survivor count (dose: 200.0 mg/kg/injection, schedule: Q01DX009 (ip), vehicle: saline): 4 of 6
